Experimental data published in article PMC6811503.

The chains behind the UniProt entries cited, without tags or fusion partners. Where a name states a change or a piece, a line headed by the entry shows the natural chain unless it says otherwise.
UniProt J9VMS4: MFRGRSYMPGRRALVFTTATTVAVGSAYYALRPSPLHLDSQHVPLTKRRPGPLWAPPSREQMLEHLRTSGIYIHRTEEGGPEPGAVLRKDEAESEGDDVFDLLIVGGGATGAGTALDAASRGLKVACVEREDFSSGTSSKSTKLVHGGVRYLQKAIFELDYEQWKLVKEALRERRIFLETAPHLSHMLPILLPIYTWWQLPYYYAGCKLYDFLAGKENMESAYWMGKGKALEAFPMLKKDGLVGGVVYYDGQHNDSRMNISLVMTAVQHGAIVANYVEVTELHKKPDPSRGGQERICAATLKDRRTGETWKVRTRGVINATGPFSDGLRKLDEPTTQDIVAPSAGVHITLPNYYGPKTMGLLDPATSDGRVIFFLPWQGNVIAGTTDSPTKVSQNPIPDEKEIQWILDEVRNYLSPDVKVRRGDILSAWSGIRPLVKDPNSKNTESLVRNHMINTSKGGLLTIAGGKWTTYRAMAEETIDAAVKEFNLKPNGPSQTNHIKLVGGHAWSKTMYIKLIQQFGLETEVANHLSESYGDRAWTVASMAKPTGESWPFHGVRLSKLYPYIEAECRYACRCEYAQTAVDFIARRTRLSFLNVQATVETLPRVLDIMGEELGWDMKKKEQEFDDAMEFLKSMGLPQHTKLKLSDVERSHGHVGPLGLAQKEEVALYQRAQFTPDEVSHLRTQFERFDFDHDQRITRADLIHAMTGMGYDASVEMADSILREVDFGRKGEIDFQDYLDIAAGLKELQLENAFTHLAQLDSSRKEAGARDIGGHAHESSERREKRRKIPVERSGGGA
UniProt J9VVA4: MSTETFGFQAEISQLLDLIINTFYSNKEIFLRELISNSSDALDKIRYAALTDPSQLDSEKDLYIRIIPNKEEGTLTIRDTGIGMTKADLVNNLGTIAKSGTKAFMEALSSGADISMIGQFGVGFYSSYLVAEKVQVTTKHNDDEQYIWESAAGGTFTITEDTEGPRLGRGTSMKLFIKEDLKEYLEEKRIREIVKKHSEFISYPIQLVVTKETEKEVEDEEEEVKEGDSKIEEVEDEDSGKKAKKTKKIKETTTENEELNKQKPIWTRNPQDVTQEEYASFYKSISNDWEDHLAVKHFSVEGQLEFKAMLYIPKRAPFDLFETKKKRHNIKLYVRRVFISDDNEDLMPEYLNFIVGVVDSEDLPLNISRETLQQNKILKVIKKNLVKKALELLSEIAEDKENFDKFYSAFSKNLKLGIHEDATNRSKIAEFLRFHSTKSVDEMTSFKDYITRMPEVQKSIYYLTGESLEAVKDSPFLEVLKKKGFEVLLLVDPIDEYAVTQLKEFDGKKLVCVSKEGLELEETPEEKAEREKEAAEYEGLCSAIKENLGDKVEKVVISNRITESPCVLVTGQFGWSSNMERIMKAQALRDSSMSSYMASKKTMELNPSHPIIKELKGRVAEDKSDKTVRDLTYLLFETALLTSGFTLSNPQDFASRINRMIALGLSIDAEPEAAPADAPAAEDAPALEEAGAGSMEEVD
UniProt J9VT48: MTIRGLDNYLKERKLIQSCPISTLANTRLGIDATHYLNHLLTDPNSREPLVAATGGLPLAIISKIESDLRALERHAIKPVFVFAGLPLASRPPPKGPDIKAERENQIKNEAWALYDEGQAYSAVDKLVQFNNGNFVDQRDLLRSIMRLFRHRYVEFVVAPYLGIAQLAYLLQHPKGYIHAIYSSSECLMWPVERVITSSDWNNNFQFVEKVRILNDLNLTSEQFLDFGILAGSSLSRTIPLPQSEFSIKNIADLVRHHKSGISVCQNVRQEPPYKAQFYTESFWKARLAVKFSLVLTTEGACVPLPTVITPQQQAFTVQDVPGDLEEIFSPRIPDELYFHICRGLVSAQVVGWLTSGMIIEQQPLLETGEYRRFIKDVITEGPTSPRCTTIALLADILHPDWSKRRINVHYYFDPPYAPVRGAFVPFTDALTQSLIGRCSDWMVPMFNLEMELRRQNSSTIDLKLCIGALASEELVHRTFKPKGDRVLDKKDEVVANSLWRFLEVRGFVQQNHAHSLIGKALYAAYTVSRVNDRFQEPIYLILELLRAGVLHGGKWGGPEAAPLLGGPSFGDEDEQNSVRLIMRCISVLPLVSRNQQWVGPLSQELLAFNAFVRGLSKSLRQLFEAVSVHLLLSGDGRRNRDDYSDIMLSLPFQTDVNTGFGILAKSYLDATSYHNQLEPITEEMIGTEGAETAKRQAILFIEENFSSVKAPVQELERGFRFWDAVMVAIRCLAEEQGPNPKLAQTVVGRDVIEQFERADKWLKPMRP

Target: T1, Pbp1-4×FLAG (C. neoformans) (UniProt J9VND4)
T1 sequence: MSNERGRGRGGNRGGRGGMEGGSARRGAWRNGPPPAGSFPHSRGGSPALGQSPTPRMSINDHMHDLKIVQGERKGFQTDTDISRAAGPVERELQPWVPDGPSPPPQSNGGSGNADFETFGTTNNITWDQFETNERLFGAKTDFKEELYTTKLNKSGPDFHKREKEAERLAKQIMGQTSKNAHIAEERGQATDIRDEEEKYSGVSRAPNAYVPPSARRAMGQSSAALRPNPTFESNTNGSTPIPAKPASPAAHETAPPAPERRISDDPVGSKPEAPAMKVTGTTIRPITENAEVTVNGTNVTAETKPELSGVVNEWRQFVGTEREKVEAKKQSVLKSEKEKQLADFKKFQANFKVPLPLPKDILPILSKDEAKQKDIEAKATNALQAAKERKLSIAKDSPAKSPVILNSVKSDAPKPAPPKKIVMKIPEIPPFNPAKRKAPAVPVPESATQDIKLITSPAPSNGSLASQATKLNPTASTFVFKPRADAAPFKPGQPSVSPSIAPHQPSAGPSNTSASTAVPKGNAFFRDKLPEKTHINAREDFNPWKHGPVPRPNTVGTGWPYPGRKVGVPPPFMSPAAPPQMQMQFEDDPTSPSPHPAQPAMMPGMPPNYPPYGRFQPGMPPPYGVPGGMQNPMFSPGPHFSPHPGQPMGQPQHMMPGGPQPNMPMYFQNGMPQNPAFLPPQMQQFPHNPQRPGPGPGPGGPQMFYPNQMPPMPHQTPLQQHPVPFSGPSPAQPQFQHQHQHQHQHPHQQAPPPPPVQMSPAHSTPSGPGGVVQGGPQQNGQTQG
Test: affinity purification with mass spectrometry; anti-FLAG M2 affinity gel on lysate of HP181 (Pbp1-4xFLAG), untagged H99 as control; cells grown at 30°C then 1 h at 37°C; lysis buffer 50 mM Tris-HCl pH 7.5, 150 NaCl, 0.5 mM EDTA, 0.5% Triton X-100; 4°C; one Coomassie-stained band seen only with HP181 was excised, digested with trypsin and analysed by LC-MS/MS

Row | Substance | binding
1 | Gut2 (from UniProt J9VMS4) | binds
2 | Hsc82 (from UniProt J9VVA4 1-699) | binds
3 | Mkt1 (Maintenance of K2 Killer Toxin 1) (from UniProt J9VT48 1-768) | binds

No constants are given. Whether binding was seen depends on the method and setting. In cells and extracts the contact can be indirect. A yes stands for co-enrichment or nearness to the bait. Other partners may have been found. Sequences can lack the tags named with a protein.
